Measured values reported in article PMC9765618.
Results are given in words; binding and its absence hold for the method and conditions named. Binding seen in cells or lysates may run through a third protein. Here binding means that the protein was enriched with, or labelled near, the bait; the list need not be complete.

Amino acid sequences for entries named in this document (tags omitted). A change or cut given only in a name is not applied to a line headed by its entry. Chains listed by the source or under a name are the forms on record and can include a tag or linker.
bacterially purified GST-tagged Sp100A (P23497, form named): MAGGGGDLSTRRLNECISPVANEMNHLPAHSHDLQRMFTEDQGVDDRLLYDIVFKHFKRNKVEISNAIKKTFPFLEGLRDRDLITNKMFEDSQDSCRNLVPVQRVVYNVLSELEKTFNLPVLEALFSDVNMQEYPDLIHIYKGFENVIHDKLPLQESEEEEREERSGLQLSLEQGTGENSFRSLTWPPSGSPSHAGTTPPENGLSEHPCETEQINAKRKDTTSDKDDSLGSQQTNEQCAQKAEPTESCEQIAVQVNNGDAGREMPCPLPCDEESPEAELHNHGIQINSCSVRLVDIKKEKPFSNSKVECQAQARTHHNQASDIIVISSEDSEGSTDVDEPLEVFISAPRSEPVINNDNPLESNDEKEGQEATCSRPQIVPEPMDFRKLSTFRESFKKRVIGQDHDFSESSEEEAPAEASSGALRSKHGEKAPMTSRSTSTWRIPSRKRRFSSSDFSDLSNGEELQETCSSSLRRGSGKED
UniProt P14618: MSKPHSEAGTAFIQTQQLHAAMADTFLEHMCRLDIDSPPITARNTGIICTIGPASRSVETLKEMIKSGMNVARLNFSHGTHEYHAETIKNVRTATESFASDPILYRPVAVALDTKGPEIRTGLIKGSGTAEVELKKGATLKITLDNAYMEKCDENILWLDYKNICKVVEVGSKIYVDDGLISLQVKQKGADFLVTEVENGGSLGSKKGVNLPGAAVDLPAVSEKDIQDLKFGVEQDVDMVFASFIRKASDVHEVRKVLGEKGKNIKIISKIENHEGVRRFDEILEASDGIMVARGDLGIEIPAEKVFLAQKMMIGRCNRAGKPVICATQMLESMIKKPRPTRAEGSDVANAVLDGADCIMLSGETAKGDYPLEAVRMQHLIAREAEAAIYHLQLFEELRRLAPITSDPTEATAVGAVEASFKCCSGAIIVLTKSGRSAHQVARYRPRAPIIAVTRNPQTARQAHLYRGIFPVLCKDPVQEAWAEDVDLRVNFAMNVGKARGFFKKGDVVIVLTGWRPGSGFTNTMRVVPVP

Experiments:
[1] = biological target: Flag-Sp100A NLS mutant (human) (UniProt P23497); experiment: affinity purification with mass spectrometry; cytosolic fraction of IFN-β-treated HEp-2 cells transfected with the Flag-Sp100A NLS mutant; anti-Flag magnetic beads overnight at 4°C, washed with PBST; gel bands cut and sent for LC-MS/MS
[2] = biological target: bacterially purified GST-tagged Sp100A (human) (UniProt P23497); experiment: affinity purification with mass spectrometry; only the target purified

With “pyruvate kinase 2 (PKM), endogenous (from UniProt P14618 1-531) (enzyme)” the binding [1] was “binds” and the binding [2] was “binds”.
